No constants are given. Whether binding was seen depends on the method and setting. Some binding calls cover weakened binding; strength is not graded here.
Target: T1, pyocin S2 immunity protein (P. aeruginosa (strain not stated)) (UniProt Q06579)
T1 sequence: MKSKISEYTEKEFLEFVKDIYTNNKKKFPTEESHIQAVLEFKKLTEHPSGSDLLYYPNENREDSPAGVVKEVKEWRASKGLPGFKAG
Experiment: co-purification (nickel affinity + size exclusion chromatography); pyocin and immunity protein co-expressed in E. coli BL21(DE3)pLysS, His6 tag on the immunity protein only; HisTrap in 20 mM Tris/HCl, 500 mM NaCl, pH 7.5, 20-500 mM imidazole gradient, then Superdex S200 or S75 in 50 mM Tris/HCl, 200 mM NaCl, pH 7.5

pyocin S2Δ17 (from UniProt Q06584 18-689) (domain or fragment)
binding: binds
